# Source: the supplement of paper PMC7661543
# ± gives the standard deviation of the averaged measurements. The effect of the compound repeats well; differences between the knockouts mostly do not.
# System: MDA-MB-231
# Assay: relative cell number vs DMSO control (72 h) (% of DMSO); higher = less growth inhibition (more cells)
# Description: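 QMAP-Seq: a pool of 5 breast cancer cell lines (ZR-75-1, SKBR3, HCC-38, MDA-MB-231, BT-20), each carrying 12 doxycycline-inducible Cas9 sgRNA perturbations (11 knockouts plus non-targeting sgNT), was treated with compounds for 72 h at four 10-fold doses (10 nM-10 uM or 1 nM-1 uM range). Barcodes were amplified and sequenced, and cell number was interpolated from 293T spike-in standard curves. The result is expressed as % of the median of DMSO wells. Two biological replicates.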
# [1] = sgRNA knockout: sgATF3, 1000 nM
# [2] = sgRNA knockout: sgATF3, 10000 nM
# [3] = sgRNA knockout: sgATF4, 1000 nM
# [4] = sgRNA knockout: sgATF4, 10000 nM
# [5] = sgRNA knockout: sgATF6, 1000 nM
# [6] = sgRNA knockout: sgATF6, 10000 nM
# [7] = sgRNA knockout: sgATG7, 1000 nM
# [8] = sgRNA knockout: sgATG7, 10000 nM
# [9] = sgRNA knockout: sgERN1, 1000 nM
# [10] = sgRNA knockout: sgERN1, 10000 nM
# [11] = sgRNA knockout: sgHSF1, 1000 nM
# [12] = sgRNA knockout: sgHSF1, 10000 nM
# [13] = sgRNA knockout: sgHSF2, 1000 nM
# [14] = sgRNA knockout: sgHSF2, 10000 nM
# [15] = sgRNA knockout: sgKEAP1, 100 nM
# [16] = sgRNA knockout: sgKEAP1, 1000 nM
# [17] = sgRNA knockout: sgKEAP1, 10000 nM
# [18] = sgRNA knockout: sgNFE2L2, 10 nM
# [19] = sgRNA knockout: sgNFE2L2, 100 nM
# [20] = sgRNA knockout: sgNFE2L2, 1000 nM
# [21] = sgRNA knockout: sgNFE2L2, 10000 nM
# [22] = sgRNA knockout: sgSLC35F2, 10 nM
# [23] = sgRNA knockout: sgSLC35F2, 100 nM
# [24] = sgRNA knockout: sgSLC35F2, 1000 nM
# [25] = sgRNA knockout: sgSLC35F2, 10000 nM
# [26] = sgRNA knockout: sgXBP1, 1000 nM
# [27] = sgRNA knockout: sgXBP1, 10000 nM
structure (smiles),measurement,setting,value
CC(C)C[C@H](NC(=O)CNC(=O)c1cc(Cl)ccc1Cl)B(O)O [MLN2238],relative cell number,"sgRNA knockout: sgATF3, 10 nM",95.4 ± 16
same,relative cell number,"sgRNA knockout: sgATF3, 100 nM",62.8 ± 10
same,relative cell number,[1],8.12 ± 0.64
same,relative cell number,[2],6.25 ± 1.1
same,relative cell number,"sgRNA knockout: sgATF4, 10 nM",56.1 ± 3.3
same,relative cell number,"sgRNA knockout: sgATF4, 100 nM",39 ± 8.5
same,relative cell number,[3],6.62 ± 0.09
same,relative cell number,[4],7.48 ± 8.2
same,relative cell number,"sgRNA knockout: sgATF6, 10 nM",92.6 ± 20
same,relative cell number,"sgRNA knockout: sgATF6, 100 nM",50.9 ± 13
same,relative cell number,[5],10 ± 2.8
same,relative cell number,[6],5.54 ± 3.6
same,relative cell number,"sgRNA knockout: sgATG7, 10 nM",108 ± 8.7
same,relative cell number,"sgRNA knockout: sgATG7, 100 nM",48 ± 4.2
same,relative cell number,[7],8.22 ± 1.5
same,relative cell number,[8],8.52 ± 6.8
same,relative cell number,"sgRNA knockout: sgERN1, 10 nM",87.3 ± 26
same,relative cell number,"sgRNA knockout: sgERN1, 100 nM",45.9 ± 3.3
same,relative cell number,[9],8.21 ± 0.44
same,relative cell number,[10],8 ± 1.6
same,relative cell number,"sgRNA knockout: sgHSF1, 10 nM",63.3 ± 27
same,relative cell number,"sgRNA knockout: sgHSF1, 100 nM",39.9 ± 7.9
same,relative cell number,[11],11.1 ± 2.1
same,relative cell number,[12],4.27 ± 1.1
same,relative cell number,"sgRNA knockout: sgHSF2, 10 nM",101 ± 9.9
same,relative cell number,"sgRNA knockout: sgHSF2, 100 nM",60.7 ± 2.7
same,relative cell number,[13],6.78 ± 1.1
same,relative cell number,[14],6.05 ± 2.8
same,relative cell number,"sgRNA knockout: sgKEAP1, 10 nM",98.6 ± 13
same,relative cell number,[15],56.1 ± 2.9
same,relative cell number,[16],7.84 ± 1.2
same,relative cell number,[17],3.92 ± 1
same,relative cell number,[18],74.5 ± 2.7
same,relative cell number,[19],40.2 ± 13
same,relative cell number,[20],6.53 ± 1.8
same,relative cell number,[21],5.04 ± 2.3
same,relative cell number,[22],105 ± 13
same,relative cell number,[23],56 ± 17
same,relative cell number,[24],5.93 ± 1.4
same,relative cell number,[25],4.29 ± 3.8
same,relative cell number,"sgRNA knockout: sgXBP1, 10 nM",65.4 ± 20
same,relative cell number,"sgRNA knockout: sgXBP1, 100 nM",41.6 ± 12
same,relative cell number,[26],10.2 ± 1.6
same,relative cell number,[27],6.63 ± 2
COc1cc(-n2c(=S)[nH]c3ccccc3c2=O)c(Cl)cc1Cl [Mdivi1],relative cell number,"sgRNA knockout: sgATF3, 10 nM",88.9 ± 10
same,relative cell number,"sgRNA knockout: sgATF3, 100 nM",86 ± 28
same,relative cell number,[1],88.9 ± 16
same,relative cell number,[2],63.1 ± 24
same,relative cell number,"sgRNA knockout: sgATF4, 10 nM",74.9 ± 9.3
same,relative cell number,"sgRNA knockout: sgATF4, 100 nM",95.8 ± 14
same,relative cell number,[3],126 ± 21
same,relative cell number,[4],86 ± 1.2
same,relative cell number,"sgRNA knockout: sgATF6, 10 nM",96.8 ± 9.3
same,relative cell number,"sgRNA knockout: sgATF6, 100 nM",96.6 ± 9.8
same,relative cell number,[5],89.5 ± 5.2
same,relative cell number,[6],75.6 ± 2.2
same,relative cell number,"sgRNA knockout: sgATG7, 10 nM",86.5 ± 2.6
same,relative cell number,"sgRNA knockout: sgATG7, 100 nM",88 ± 5.6
same,relative cell number,[7],95.8 ± 6.7
same,relative cell number,[8],72.4 ± 15
same,relative cell number,"sgRNA knockout: sgERN1, 10 nM",110.3 ± 0.78
same,relative cell number,"sgRNA knockout: sgERN1, 100 nM",147 ± 53
same,relative cell number,[9],83.9 ± 5.1
same,relative cell number,[10],76.6 ± 22
same,relative cell number,"sgRNA knockout: sgHSF1, 10 nM",81.9 ± 17
same,relative cell number,"sgRNA knockout: sgHSF1, 100 nM",77.36 ± 0.27
same,relative cell number,[11],76.2 ± 20
same,relative cell number,[12],80.1 ± 3.4
same,relative cell number,"sgRNA knockout: sgHSF2, 10 nM",103 ± 11
same,relative cell number,"sgRNA knockout: sgHSF2, 100 nM",79.8 ± 4.4
same,relative cell number,[13],88.1 ± 21
same,relative cell number,[14],67.9 ± 7.6
same,relative cell number,"sgRNA knockout: sgKEAP1, 10 nM",105 ± 2.4
same,relative cell number,[15],87.5 ± 27
same,relative cell number,[16],90 ± 9.5
same,relative cell number,[17],68.5 ± 21
same,relative cell number,[18],79.7 ± 21
same,relative cell number,[19],92.7 ± 6.1
same,relative cell number,[20],112 ± 39
same,relative cell number,[21],80 ± 25
same,relative cell number,[22],89.1 ± 2.8
same,relative cell number,[23],74.4 ± 6.3
same,relative cell number,[24],93.2 ± 4.9
same,relative cell number,[25],72.7 ± 13
same,relative cell number,"sgRNA knockout: sgXBP1, 10 nM",86.6 ± 4.6
same,relative cell number,"sgRNA knockout: sgXBP1, 100 nM",88.9 ± 3.5
same,relative cell number,[26],108 ± 3.7
same,relative cell number,[27],76.8 ± 14
O=C1c2c(O)ccc(O)c2C(=O)c2c(NCCNCCO)ccc(NCCNCCO)c21 [Mitoxantrone],relative cell number,"sgRNA knockout: sgATF3, 10 nM",37.3 ± 7.2
same,relative cell number,"sgRNA knockout: sgATF3, 100 nM",16.5 ± 5.1
same,relative cell number,[1],8.86 ± 3.9
same,relative cell number,[2],8.06 ± 4.4
same,relative cell number,"sgRNA knockout: sgATF4, 10 nM",31.5 ± 16
same,relative cell number,"sgRNA knockout: sgATF4, 100 nM",21.5 ± 6.8
same,relative cell number,[3],13.9 ± 2.3
same,relative cell number,[4],9.61 ± 5.1
same,relative cell number,"sgRNA knockout: sgATF6, 10 nM",26.7 ± 8
same,relative cell number,"sgRNA knockout: sgATF6, 100 nM",15.8 ± 5.5
same,relative cell number,[5],9.33 ± 4.8
same,relative cell number,[6],6.27 ± 5.6
same,relative cell number,"sgRNA knockout: sgATG7, 10 nM",29.1 ± 9.5
same,relative cell number,"sgRNA knockout: sgATG7, 100 nM",19.9 ± 7.2
same,relative cell number,[7],7 ± 0.95
same,relative cell number,[8],6.48 ± 2
same,relative cell number,"sgRNA knockout: sgERN1, 10 nM",26.9 ± 8.4
same,relative cell number,"sgRNA knockout: sgERN1, 100 nM",14.9 ± 3.6
same,relative cell number,[9],6.36 ± 3.3
same,relative cell number,[10],9.18 ± 4.3
same,relative cell number,"sgRNA knockout: sgHSF1, 10 nM",29.37 ± 0.25
same,relative cell number,"sgRNA knockout: sgHSF1, 100 nM",12.4 ± 2.7
same,relative cell number,[11],8.26 ± 0.7
same,relative cell number,[12],9.11 ± 5.2
same,relative cell number,"sgRNA knockout: sgHSF2, 10 nM",34.7 ± 2.2
same,relative cell number,"sgRNA knockout: sgHSF2, 100 nM",18.2 ± 2.3
same,relative cell number,[13],7.45 ± 1.1
same,relative cell number,[14],9.84 ± 4.1
same,relative cell number,"sgRNA knockout: sgKEAP1, 10 nM",27.7 ± 6.5
same,relative cell number,[15],15.3 ± 0.39
same,relative cell number,[16],10.7 ± 3.6
same,relative cell number,[17],7.42 ± 3.6
same,relative cell number,[18],30 ± 3.4
same,relative cell number,[19],15.8 ± 6.1
same,relative cell number,[20],9.24 ± 2.3
same,relative cell number,[21],7.31 ± 1.9
same,relative cell number,[22],33 ± 9.4
same,relative cell number,[23],11.4 ± 7.2
same,relative cell number,[24],6.64 ± 2.8
same,relative cell number,[25],9.69 ± 2.9
same,relative cell number,"sgRNA knockout: sgXBP1, 10 nM",34.9 ± 4.7
same,relative cell number,"sgRNA knockout: sgXBP1, 100 nM",21.1 ± 1.1
same,relative cell number,[26],6.17 ± 0.9
same,relative cell number,[27],7.76 ± 5.8

# At a glance, part of the list above.
structure (smiles),measurement,setting,value
CC(C)C[C@H](NC(=O)CNC(=O)c1cc(Cl)ccc1Cl)B(O)O [MLN2238],relative cell number,"sgRNA knockout: sgERN1, 100 nM",45.9 ± 3.3
same,relative cell number,[9],8.21 ± 0.44
same,relative cell number,[10],8 ± 1.6
same,relative cell number,"sgRNA knockout: sgHSF1, 10 nM",63.3 ± 27
same,relative cell number,"sgRNA knockout: sgHSF1, 100 nM",39.9 ± 7.9
